# Taken from: PubChem BioAssay AID1259254 (NCATS, 2017)
# Assay: 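Finding genes that stop cells copying their DNA twice in one cycle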 (primary screen)
# System: human HCT116 colorectal cancer cells
# Reagent: single siRNA against human genes
# Duration: 3 days
# Measurement: 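Nuclei stained with Hoechst and imaged; cell-cycle phase assigned by DNA content; G2 share scaled per plate, non-targeting siRNA 0%, GMNN siRNA 100%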
# Scale: G2 robust z-score and G2 cells, % of GMNN control: higher = more G2 cells, more excess DNA replication; raw share of cells in G2: higher = larger share of cells with G2 DNA content
# Active means: 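An siRNA counts as active if its G2 robust z-score lies at least 5 MADs above the screen median; here such calls match roughly 38% of GMNN control or more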
# The deposit covers about 59,000 reagents; below is a part drawn at random. About 1,550 of all reagents (2.6%) were called active. 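G2 share is only a proxy for re-replication; each gene was hit by three separate siRNAs, and active genes were retested.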 Raw values vary from plate to plate and are shown uncorrected. Unmarked entries are inactive. Not given: the amount of reagent.
Target gene,PubChem SID,G2 robust z-score,"G2 cells, % of GMNN control",raw share of cells in G2 (%)
DYNLT3,SID160717861,0.164,4.12,6.96
DYNLT3,SID160717862,-0.137,2,4.69
DYNLT3,SID160717863,0.681,7.76,6.09
SLC29A4,SID160761911,-0.0409,2.68,7.24
SLC29A4,SID160761912,-0.072,2.46,5.6
SLC29A4,SID160761913,-1.03,-4.31,2.89
NME3,SID160723958,-1.32,-6.3,3.63
NME3,SID160723959,1.8,15.6,10.9
NME3,SID160723960,-0.481,-0.42,3.55
SCO1,SID160716429,-0.285,0.96,4.28
SCO1,SID160716430,-0.198,1.57,6.21
SCO1,SID160716431,-0.298,0.873,4.85
SLC4A1,SID160716827,1.3,12.1,7.97
SLC4A1,SID160716828,1.42,13,8.99
SLC4A1,SID160731752,-0.499,-0.542,5.5

In a second layout: 2 of the entries above
{"Target gene":"DYNLT3","PubChem SID":"SID160717863","G2 robust z-score":0.681,"G2 cells, % of GMNN control":7.76,"raw share of cells in G2 (%)":6.09}
{"Target gene":"SLC29A4","PubChem SID":"SID160761911","G2 robust z-score":-0.0409,"G2 cells, % of GMNN control":2.68,"raw share of cells in G2 (%)":7.24}

Continued:
Target gene,PubChem SID,G2 robust z-score,"G2 cells, % of GMNN control",raw share of cells in G2 (%)
NMT2,SID160722110,0.72,8.03,5.94
NMT2,SID160722112,-1.06,-4.51,2.92
NMT2,SID160722113,0.552,6.85,7.79
CGNL1,SID160735131,-0.217,1.44,3.38
CGNL1,SID160753024,-0.931,-3.58,2.56
CGNL1,SID160753026,1.87,16.1,8.06
MAP3K8,SID160746819,0.342,5.37,7.38
MAP3K8,SID160746828,1.76,15.3,10.6
MAP3K8,SID160746839,-0.309,0.792,4.3
REXO4,SID160731583,5.81 (active),43.8,22.6
REXO4,SID160745614,-0.197,1.58,5.01
REXO4,SID160745615,3.62,28.4,18.9
IFNAR1,SID160776256,-0.231,1.34,4.69
IFNAR1,SID160776267,0.243,4.67,6.74
IFNAR1,SID160776277,2.68,21.8,14
